Experimental data reported in PubChem BioAssay AID652054 (National Center for Advancing Translational Sciences (NCATS), 2013).
Values joined by “and” are separate entries in the source; they are usually repeats but may differ in a detail not shown here. Identical values can stand only once. Hit rate of the full screen: of about 360,000 compounds, about 9,100 (2.5%) were called active. The inconclusive results got no clear call from the source; some entries with a clear call stand among them for comparison. Rule as the data show it: active = max response below about -50%; inconclusive = no clear call, values can overlap the other calls; inactive = above that.

By UniProt entry, the sequences of proteins in these tests, tags left out.
UniProt P35462, whole entry, looked up: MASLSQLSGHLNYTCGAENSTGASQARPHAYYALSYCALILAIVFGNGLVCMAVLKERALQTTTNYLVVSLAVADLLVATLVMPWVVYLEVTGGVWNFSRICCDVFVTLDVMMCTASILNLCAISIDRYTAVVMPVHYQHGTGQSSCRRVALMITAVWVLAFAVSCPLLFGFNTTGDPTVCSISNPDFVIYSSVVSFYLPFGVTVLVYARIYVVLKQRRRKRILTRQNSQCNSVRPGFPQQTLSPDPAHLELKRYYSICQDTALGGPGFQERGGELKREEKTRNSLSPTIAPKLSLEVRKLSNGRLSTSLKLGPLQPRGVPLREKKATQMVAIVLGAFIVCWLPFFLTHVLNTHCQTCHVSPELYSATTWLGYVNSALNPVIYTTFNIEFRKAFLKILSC

Target: D(3) dopamine receptor (Homo sapiens) (UniProt P35462)
Experiment: qHTS of D3 Dopamine Receptor Antagonist: qHTS
Details: D3R cells, DiscoveRx beta-arrestin luminescence, antagonist mode; hits give low values
Procedure, shortened: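 Cells plated overnight at 1500 cells/well, then exposed to library compounds with dopamine controls for 90 minutes at 37 degrees C. DiscoveRx reagent added for 30–60 minutes at room temperature; luminescence read, quantitative HTS format.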
% is scaled to controls: 0 for no effect and ±100 for the full control effect.

Structure (SMILES)	max response, negative = inhibition
COc1ccc(CNC(=O)c2ccc(CS(=O)(=O)c3ccc(OC)cc3)o2)cc1	inconclusive: -30.3%
O=c1c2oc3ccccc3c2ncn1Cc1ccccc1F	inconclusive: -32.6%
CCCCNC(=S)N(C)/N=C/c1c(F)c(F)c(F)c(F)c1F	inactive: 3.34%
CC(=O)Nc1nc2n(n1)C(c1ccc(Cl)cc1)C=C(C)N2 (stereo unspecified)	inconclusive: -30.3%
COc1cc(NC(=O)Cn2nc(Cc3cccnc3)c3ccccc3c2=O)cc(OC)c1OC	inconclusive: -33.8%
c1ccc2c(c1)CCCn1nnnc1-2	inconclusive: -36.8%
COc1cccc(C(=O)C(C#N)=C(SC)SC)c1	inconclusive: -33.1%
CCN1CCc2c(sc(NC(=O)Cc3ccccc3)c2C(N)=O)C1	inconclusive: -31.7%
C=CCc1ccc(OCCCCN2CC(C)CC(C)C2)c(OC)c1 (stereo unspecified)	active: -105%
O=C(c1sc2cc([N+](=O)[O-])ccc2c1Cl)N1CCCCC1	inconclusive: -32.9%
CC(C)CC(N)c1csc(NC(=O)Nc2ccccc2Cc2ccccc2)n1 (stereo unspecified)	inconclusive: -34.2%
O=C1C=CC2=C3c4cc(O)c(O)cc4CC3(O)COC2=C1O (stereo unspecified)	inactive: -14.7%
Cc1cccc(CN2CCN(c3ccccn3)CC2)c1	inconclusive: -42.9%
Cc1ccc(Sc2ccc(CO)cc2[N+](=O)[O-])cc1	inconclusive: -36.5%
COc1cc(C2C3=C(COC3=O)Oc3cc4c(cc32)OCO4)ccc1O (stereo unspecified)	inactive: -11.4%
O=C(CCCOc1ccccc1)Nc1nccs1	active: -57.3%
CSc1ccc(/C=N/n2c(Cc3ccc(Br)cc3)n[nH]c2=S)cc1	inconclusive: -42.9%
COC(=O)C(NC(=O)c1ccc(OC)cc1)(Nc1ncc(S(=O)(=O)c2ccc([N+](=O)[O-])cc2)s1)C(F)(F)F (stereo unspecified)	active: -81.6%
Clc1ccc(CSc2nnc(-c3ccncc3)o2)cc1	inconclusive: -30%
Cc1ccc2c(CN3CCN(Cc4ccc5c(c4)OCO5)CC3)cc(=O)oc2c1C	inconclusive: -33.7%
O=C(c1ccccc1F)N1CCN(c2ccc([N+](=O)[O-])cc2-n2cccc2)CC1	inconclusive: -30.6%
CCOC(=O)c1sc(NC(=O)C2C3C=CC(C3)C2C(=O)O)nc1C (stereo unspecified)	inconclusive: -37.4%
Cc1ccc(Nc2cccc(C(F)(F)F)c2)nn1	inconclusive: -33.9%

Structure (SMILES)	max response, negative = inhibition
CCO[C@@H]1OC(C(=O)N2CCN(Cc3ccc4c(c3)OCO4)CC2)=C[C@H](c2ccc(Br)cc2)[C@H]1CCCO	active: -98.3%
COc1cc(C(=O)NC(=S)Nc2ccccc2N2CCCC2)cc(OC)c1OC	inactive: 10.3%
CC1=CC(=O)C2(C)C(C)=C(C)C12C (stereo unspecified)	inactive: -9.34%
Nc1ccc(N(CCO)CCO)cc1	inconclusive: -33.8%
Cc1cc(Br)ccc1OCCOCCN1CCCC1	active: -73.1%
CCC(=O)Nc1ccc(C=C(C(C)=O)C(C)=O)cc1	inactive: -14.2%
Cc1ccc(CSCCNC(=O)CSCc2ccc([N+](=O)[O-])cc2)cc1	inconclusive: -32.4%
N#CCC(=O)N/N=C/c1cc([N+](=O)[O-])ccc1N1CCOCC1	inconclusive: -32.8%
NNc1nc2c(Cl)ccc(Cl)c2s1	inconclusive: -41.2%
Cc1ccc(N(CC(O)CN2CCCCC2)S(=O)(=O)c2ccc(C)cc2)cc1 (stereo unspecified)	active: -51.6%
C=CCNC(=S)N1CCC(C(=O)c2ccc(OC)cc2)CC1	inactive: 3.04%
COc1ccccc1N(CC(=O)NCCc1ccccc1)S(C)(=O)=O	inactive: 5.04%
NC(CC(=O)OC1CCCCC1)C(=O)OC1CCCCC1 (stereo unspecified)	inconclusive: -32.7%
O=C1C2C3C=CC(O3)C2C(=O)N1CC(O)c1ccccc1 (stereo unspecified)	inconclusive: -33.5%
Cc1[nH]n(-c2ccccc2)c(=O)c1C=NC1CCCCCC1	inconclusive: -31.1%
O=C(CSc1nc2c([nH]c3ccccc32)c(=O)n1-c1ccccc1)NCC1CCCO1 (stereo unspecified)	active: -84.4%
CCOc1cc(C)c(Cl)cc1S(=O)(=O)NCc1ccc2c(c1)OCO2	inconclusive: -42.4%
Cc1ccc(S(=O)(=O)N(C)C[C@@H]2Oc3ccc(NS(C)(=O)=O)cc3CC(=O)N([C@H](C)CO)C[C@@H]2C)cc1	inconclusive: -40.8%
O=C(Nc1ccccc1N1CCOCC1)c1ccc([N+](=O)[O-])s1	inconclusive: -30.6%
O=C1N/C(=N/N=C/c2ccccc2O)SC1Cc1ccc(F)cc1 (stereo unspecified)	active: -55.8%
COc1ccc(-c2cc(C(F)(F)F)nc(S(C)(=O)=O)n2)cc1OC	active: -72.7%
CC(O)(C#CCN1CCCCC1)c1ccccc1 (stereo unspecified)	inconclusive: -39.2%

Structure (SMILES)	max response, negative = inhibition
Cc1ccc(NC(=O)Cc2ccc3c(c2)CCCC3)cc1C	inactive: -9.51%
COC(=O)c1cc(C(=O)OC)cc(N2C(=O)CC(N3CCN(c4ccccc4)CC3)C2=O)c1 (stereo unspecified)	inconclusive: -34.5%
Cc1ccc(C(=O)/C=C/c2ccc3ncccc3c2)cc1	inactive: -9.72%
COc1nc(NCCO)nc(Nc2ccc([N+](=O)[O-])cc2)n1	inconclusive: -32%
Cc1ccc(S(=O)(=O)N2CCC(NC(=O)c3cccc(F)c3)CC2)cc1	inactive: -2.44%
COc1ccc(CN(CC(=O)NCc2ccco2)C(=O)CCC(=O)Nc2nccs2)cc1	inconclusive: -41%
Cc1ccccc1/[N+]([O-])=C/c1ccncc1	inconclusive: -36.5%
COc1ccccc1C1CC(c2ccc(F)cc2)Nc2ncnn21 (stereo unspecified)	inconclusive: -34.9%
Cc1cc(C)cc(NC(=O)C2C3C=CC4(O3)C2C(=O)N(CCN2CCCCC2)C4C(=O)NC2CCCCC2)c1 (stereo unspecified)	inactive: -9.92%
Clc1cccc(OCCCCCN2CCOCC2)c1	inconclusive: -33.5%
O=C(N/N=C/C=C/c1cccc([N+](=O)[O-])c1)C(O)c1ccccc1 (stereo unspecified)	inconclusive: -36.8%
CC(C)C[C@H]1CNC(=S)N1C[C@H]1CCCN1C[C@H](Cc1ccc(O)cc1)N1C[C@H](Cc2ccc(O)cc2)N(CCc2ccccc2)C1=S	inconclusive: -34.6%
CN(C)c1ccc(C(=O)C=Cc2ccc([N+](=O)[O-])cc2)cc1	inactive: -3.33%
O=C(c1ccc(Cn2cc(Br)cn2)o1)n1cccn1	active: -51.7%
COc1ccc(OC)c(/C=N\NC(=O)CSc2nnc(CCCc3ccc(OC)c(C)c3)o2)c1	inactive: 7.31%
CC(C)(C)CC(C)(C)NC(=S)NC1CCN(Cc2ccccc2)CC1	inconclusive: -36%
O=C(N/N=C/c1cc(O)ccc1[N+](=O)[O-])c1ccc2c(c1)OCCO2	inconclusive: -31.9%
Nc1ccc(Br)cc1C(NCC(=O)O)c1ccccc1 (stereo unspecified)	inactive: -14.8%
CCCNC(=O)C1(C)CCN(CCOc2ccc(Cl)cc2)C1 (stereo unspecified)	active: -72%
O=C(CN1CCC(C(=O)c2ccc(F)cc2)CC1)Nc1ccccc1Cl	active: -56.9%
Cc1ccc(S(=O)(=O)NCc2ccc(C(=O)NCCCN3CCC(Cc4ccccc4)CC3)cc2)cc1	inactive: 2.96%
Cc1sc2ccccc2[n+]1CCC(C)S(=O)(=O)[O-] (stereo unspecified)	active: -66.8%
Cc1ccc(OCC(=O)N2CCOCC2)cc1C	inactive: -4.8%

Structure (SMILES)	max response, negative = inhibition
O=C(c1ccc(F)cc1)N1CCN(Cc2ccccc2)CC1	inconclusive: -30.4%
c1ccc(N=NC2=NN(c3ccccc3)CS2)cc1	inconclusive: -30.1%
CC(C(=O)NCc1ccco1)n1nc(-c2ccccc2)c2cc(Cl)ccc21 (stereo unspecified)	inconclusive: -41.2%
COc1cccc(S(=O)(=O)Nc2ccc3sc(C)nc3c2)c1	inactive: 1.77%
Cc1ccccc1SCCNC(=O)c1ccccc1Br	inconclusive: -37.6%
CC(C)SC1=NC(C)(C)C=C(/C=C/c2c(Cl)cccc2Cl)N1	inactive: 0.927%
COc1cccc(-c2cc(C(=O)N3CCCCCC3)no2)c1	inconclusive: -35.4%
CC(=O)Oc1ccccc1Cn1c(C)c(C(=O)NCc2ccc(F)cc2)sc1=O	inactive: 7.17%
Cc1cccc(C)c1NC(=O)C1CCCN(CCCc2ccccc2)C1 (stereo unspecified)	inactive: -10.6%
O=C(CNC(=O)c1ccc(Cl)cc1)NC1CCCCC1	active: -58.7%
CN(C)c1ccc(NC(=O)c2cccc(C(=O)Nc3ccc(N(C)C)cc3)n2)cc1	inconclusive: -43%
COc1cccc(C(=O)N2CCSC2=S)c1	inconclusive: -30.9%
COc1cc(OC)cc(C(=O)N2CCC(N3CCN(c4ccccc4)CC3)CC2)c1	active: -63.3%
COc1cc(OC)c(C(=O)NNC(=S)NC2CCCCC2)cc1OC	inconclusive: -36.3%
O=c1cc(-c2cccc(Br)c2)oc2cccc(O)c12	inactive: 44.4%
CCc1noc(C)c1C(=O)NCCc1ccccc1	inactive: -7.15%
CCc1nn(CCCN2CCN(c3cccc(Cl)c3)CC2)c(=O)n1CCOc1ccccc1	active: -77.2% and active: -89.6%
CCOc1cc2c(c3c1C(c1ccccc1)N(S(=O)(=O)c1ccc(C)cc1)C3)C(=O)C=CC2=O (stereo unspecified)	active: -115%
O=C(CCCN1CCC(C(O)c2ccc(F)cc2)CC1)c1ccc(F)cc1 (stereo unspecified)	active: -80.3%
COc1ccc(S(=O)(=O)N2CCN(C)CC2)cc1C(=O)N1CCCCC1	inconclusive: -40%
CCNc1nc(NCC)nc(OCCOC(=O)c2ccccc2)n1	inactive: 16.4%
O=C(O)CCn1cc(C2CC(c3ccccc3)=NN2c2ccccc2)c(-c2ccccc2)n1 (stereo unspecified)	inconclusive: -31%
